The other results are listed elsewhere or left out. Many values rest on one well or one pass, so single values are uncertain.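 Cells were imaged in 1,536-well plates, and nuclei stained with an antibody against cleaved PARP were counted against all DNA-stained nuclei to give the apoptosis fraction. Screening doses were chosen to leave most cells alive, and resting and induced cleaved-PARP levels differ strongly between cell lines.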
What was measured:
Assay in all cases: cleaved PARP positive nuclei fraction relative to DMSO control; melanoma cells; higher = more apoptosis
Settings in all cases: library dose: low library concentration; 72 h
[1] = system: MZ2-MEL
[2] = system: MeWo
[3] = system: RPMI7951
[4] = system: RVH-421
[5] = system: SkMel28
[6] = system: SkMel30
[7] = system: SkMel5
[8] = system: UACC257
[9] = system: UACC62

Structure (SMILES)	cleaved PARP positive nuclei fraction [1] [%]	cleaved PARP positive nuclei fraction [2] [%]	cleaved PARP positive nuclei fraction [3] [%]	cleaved PARP positive nuclei fraction [4] [%]	cleaved PARP positive nuclei fraction [5] [%]	cleaved PARP positive nuclei fraction [6] [%]	cleaved PARP positive nuclei fraction [7] [%]	cleaved PARP positive nuclei fraction [8] [%]	cleaved PARP positive nuclei fraction [9] [%]
C/C(O)=C(\C#N)C(=O)Nc1cc(Br)ccc1Br + c1cc(-c2cnn3cc(-c4ccc(OCCN5CCCCC5)cc4)cnc23)ccn1 [Dorsomorphin] (first compound 2 µM, partner dose 0.4 µM)	26.5	55.8	94.1	27.5	189	40	127	155	99.3
C[C@]12O[C@H](C[C@]1(O)CO)n1c3ccccc3c3c4c(c5c6ccccc6n2c5c31)CNC4=O [Lestaurtinib] + Cn1cc(/C=C2\C(=O)Nc3cccnc32)c2ccccc21 [GW441756] (first compound 0.004 µM, partner dose 0.4 µM)	48.7	71.6	207	105	134	143	540	356	91.3
C[C@]1(c2nc3c(C(N)=O)cccc3[nH]2)CCCN1 [Veliparib] + O=C(Oc1ccc([N+](=O)[O-])cc1)N1CCC(C(O)(c2ccc3c(c2)OCO3)c2ccc3c(c2)OCO3)CC1 [JZL184] (first compound 1.4 µM, partner dose 1 µM)	220	26	68.5	124	106	16.8	104	139	119
C[As](C)SC[C@H](NC(=O)CC[C@H](N)C(=O)O)C(=O)NCC(=O)O [Darinaparsin] + O=C1NC(=O)/C(=C/c2ccc(-c3ccc(F)cc3O)o2)S1 [AS252424] (first compound 0.4 µM, partner dose 1 µM)	146	45.9	75	106	86	21.2	59.8	77.7	88.6
C[C@]12O[C@H](C[C@]1(O)CO)n1c3ccccc3c3c4c(c5c6ccccc6n2c5c31)CNC4=O [Lestaurtinib] + Cc1ccc(NC(=O)c2cccc(N(C)C)c2)cc1NC(=O)c1ccc(O)cc1 [ZM336372] (first compound 0.004 µM, partner dose 2 µM)	67.3	96.2	145	87.1	108	72.6	143	504	99.9
